Results are given in words; binding and its absence hold for the method and conditions named. Some results given as binding are weak or reduced against the parent protein; the word gives no strength.
Experiments:
[1] = target: CD79 (UniProt P11912); assay: confirmatory dilution ELISA of phage display clones
[2] = target: CD79 (UniProt P11912); assay: competition ELISA of phage display clones, compared with parent H1L2
[3] = target: CD79 (UniProt P11912); assay: binding kinetics of full length IgG, Table 2
[4] = target: CD79 (UniProt P11912); assay: binding kinetics
[5] = target: CD79 (UniProt P11912); assay: antigen binding kinetics, Table 3

By UniProt entry, the sequences of proteins in these tests, tags left out. Where a name states a change or a piece, a line headed by the entry shows the natural chain unless it says otherwise.
UniProt P11912: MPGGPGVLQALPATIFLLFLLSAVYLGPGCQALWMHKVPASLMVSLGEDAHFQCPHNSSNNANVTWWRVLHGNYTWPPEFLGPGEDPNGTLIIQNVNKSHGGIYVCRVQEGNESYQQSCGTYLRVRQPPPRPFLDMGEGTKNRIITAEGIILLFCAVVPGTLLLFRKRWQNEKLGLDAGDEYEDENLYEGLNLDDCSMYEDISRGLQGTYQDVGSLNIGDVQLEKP

Binder	binding [2]	binding [3]	binding [4]	also measured
phage display clone LB511-B6 (antibody, V domains shown) VH: QVQLVQSGAEVKKPGASVKVSCKASGYAFSYSWMNWVRQAPGQGLEWMGRIYPENGDTNYNGKFKGRVTMTRDTSISTAYMELSRLRSDDTAVYYCARWVYGYPHFDYWGQGTLVTVSS VL: DVVMTQSPLSLPVTLGQPASISCKSSQSLLDSDGKTYLNWLQQRPGQSPRRLIYLVSKLDSGVPDRFSGSGSGTDFTLKISRVEAEDVGVYYCWQGTHVPFTFGGGTKVEIK	binds	–	–	binding [1]: binds
affinity matured antibody LB517/PRI47 (antibody, V domains shown) VH: QVQLVQSGAEVKKPGASVKVSCKASGYAFSYSWMNWVRQAPGQGLEWMGRIYPENGDTNYNGKFKGRVTMTRDTSISTAYMELSRLRSDDTAVYYCARWVYGLPHFDYWGQGTLVTVSS VL: DVVMTQSPLSLPVTLGQPASISCKSSQSLLDSDGKTYLNWLQQRPGQSPRRLIYLVSKLDSGVPDRFSGSGSGTDFTLKISRVEAEDVGVYYCWQGTHFPFTFGGGTKVEIK	–	binds	binds	–
engineered antibody LB630/519 (antibody, V domains shown) VH: QVQLVQSGAEVKKPGASVKVSCKASGYAFSYSWMNWVRQAPGQGLEWMGRIYPESGDTNYNGKFKGRVTMTRDTSISTAYMELSRLRSDDTAVYYCARWVYGLPHFDYWGQGTLVTVSS VL: DVVMTQSPLSLPVTLGQPASISCKSSQSLLDSDGKTYLNWLQQRPGQSPRRLIYLVSKLDSGVPDRFSGSGSGTDFTLKISRVEAEDVGVYYCWQGTHLPFTFGGGTKVEIK	–	–	–	binding [5]: binds
phage display clone LB509-G2 (antibody, V domains shown) VH: QVQLVQSGAEVKKPGASVKVSCKASGYAFSYSWMNWVRQAPGQGLEWMGRIYPENGDTNYNGKFKGRVTMTRDTSISTAYMELSRLRSDDTAVYYCARWVYGYPHLDYWGQGTLVTVSS VL: DVVMTQSPLSLPVTLGQPASISCKSSQSLLDSDGKTYLNWLQQRPGQSPRRLIYLVSKLDSGVPDRFSGSGSGTDFTLKISRVEAEDVGVYYCWQGTHFPFTFGGGTKVEIK	binds	–	–	–
affinity matured antibody LB517/521 (antibody, V domains shown) VH: QVQLVQSGAEVKKPGASVKVSCKASGYAFSYSWMNWVRQAPGQGLEWMGRIYPENGDTNYNGKFKGRVTMTRDTSISTAYMELSRLRSDDTAVYYCARWVYGLPHFDYWGQGTLVTVSS VL: DVVMTQSPLSLPVTLGQPASISCKSSQSLLDSDGKTYLNWLQQRPGQSPRRLIYLVSKLDSGVPDRFSGSGSGTDFTLKISRVEAEDVGVYYCWQGTHVPFTFGGGTKVEIK	–	binds	binds	–
phage display clone LB512-A7 (antibody, V domains shown) VH: QVQLVQSGAEVKKPGASVKVSCKASGYAFSYSWMNWVRQAPGQGLEWMGRIYPENGDTNYNGKFKGRVTMTRDTSISTAYMELSRLRSDDTAVYYCARWVYGYPHFDYWGQGTLVTVSS VL: DVVMTQSPLSLPVTLGLPASISCKSSQSLLDSDGKTYLNWLQQRPGQSPRRLIYLVSKLDSGVPDRFSGSGSGTDFTLKISRVEAEDVGVYYCWQGTHFPFTFGGGTKVEIK	binds	–	–	–
phage display clone LB510-C7 (antibody, V domains shown) VH: QVQLVQSGAEVKKPGASVKVSCKASGYAFGYSWMNWVRQAPGQGLEWMGRIYPENGDTNYNGKFKGRVTMTRDTSISTAYMELSRLRSDDTAVYYCARWVYGYPHFDYWGQGTLVTVSS VL: DVVMTQSPLSLPVTLGQPASISCKSSQSLLDSDGKTYLNWLQQRPGQSPRRLIYLVSKLDSGVPDRFSGSGSGTDFTLKISRVEAEDVGVYYCWQGTHFPFTFGGGTKVEIK	binds	–	–	–
affinity matured antibody LB495/521 (antibody, V domains shown) VH: QVQLVQSGAEVKKPGASVKVSCKASGYAFSYSWMNWVRQAPGQGLEWMGRIYPENGDTNYNGKFKGRVTMTRDTSISTAYMELSRLRSDDTAVYYCARWVYGYPHFDYWGQGTLVTVSS VL: DVVMTQSPLSLPVTLGQPASISCKSSQSLLDSDGKTYLNWLQQRPGQSPRRLIYLVSKLDSGVPDRFSGSGSGTDFTLKISRVEAEDVGVYYCWQGTHVPFTFGGGTKVEIK	–	binds	binds	–
phage display clone LB509-C2 (antibody, V domains shown) VH: QVQLVQSGAEVKKPGASVKVSCKASGYAFSYSWMNWVRQAPGQGLEWMGRIYPENGDTNYNGKFKGRVTMTRDTSISTAYMELSRLRSDDTAVYYCARWVYGLPHFDYWGQGTLVTVSS VL: DVVMTQSPLSLPVTLGQPASISCKSSQSLLDSDGKTYLNWLQQRPGQSPRRLIYLVSKLDSGVPDRFSGSGSGTDFTLKISRVEAEDVGVYYCWQGTHFPFTFGGGTKVEIK	binds	–	–	binding [1]: binds
affinity matured antibody LB495/518 (antibody, V domains shown) VH: QVQLVQSGAEVKKPGASVKVSCKASGYAFSYSWMNWVRQAPGQGLEWMGRIYPENGDTNYNGKFKGRVTMTRDTSISTAYMELSRLRSDDTAVYYCARWVYGYPHFDYWGQGTLVTVSS VL: DVVMTQSPLSLPVTLGQPASISCKSSQSLLDSDGKTYLNWLQQRPGQSPRRLIYLVSKLDSGVPDRFSGSGSGTDFTLKISRVEAEDVGVYYCWQGTHIPFTFGGGTKVEIK	–	binds	binds	–
affinity matured antibody LB517/518 (antibody, V domains shown) VH: QVQLVQSGAEVKKPGASVKVSCKASGYAFSYSWMNWVRQAPGQGLEWMGRIYPENGDTNYNGKFKGRVTMTRDTSISTAYMELSRLRSDDTAVYYCARWVYGLPHFDYWGQGTLVTVSS VL: DVVMTQSPLSLPVTLGQPASISCKSSQSLLDSDGKTYLNWLQQRPGQSPRRLIYLVSKLDSGVPDRFSGSGSGTDFTLKISRVEAEDVGVYYCWQGTHIPFTFGGGTKVEIK	–	binds	binds	–
phage display clone LB511-F6 (antibody, V domains shown) VH: QVQLVQSGAEVKKPGASVKVSCKASGYAFSYSWMNWVRQAPGQGLEWMGRIYPENGDTNYNGKFKGRVTMTRDTSISTAYMELSRLRSDDTAVYYCARWVYGYPHFDYWGQGTLVTVSS VL: DVVMTQSPLSLPVTLGQPASISCKSSQSLLDSDGKTYLNWLQQRPGQSPRRLIYLVSKLDSGVPDRFSGSGSGTDFTLKISRVEAEDVGVYYCWQGTHLPFTFGGGTKVEIK	binds	–	–	binding [1]: binds
affinity matured antibody LB495/520 (antibody, V domains shown) VH: QVQLVQSGAEVKKPGASVKVSCKASGYAFSYSWMNWVRQAPGQGLEWMGRIYPENGDTNYNGKFKGRVTMTRDTSISTAYMELSRLRSDDTAVYYCARWVYGYPHFDYWGQGTLVTVSS VL: DVVMTQSPLSLPVTLGQPASISCKSSQSLLDSDGKTYLNWLQQRPGQSPRRLIYLVSKLDSGVPDRFSGSGSGTDFTLKISRVEAEDVGVYYCWQGTHRPFTFGGGTKVEIK	–	binds	binds	–
phage display clone LB511-A9 (antibody, V domains shown) VH: QVQLVQSGAEVKKPGASVKVSCKASGYAFSYSWMNWVRQAPGQGLEWMGRIYPENGDTNYNGKFKGRVTMTRDTSISTAYMELSRLRSDDTAVYYCARWVYGYPHFDYWGQGTLVTVSS VL: DVVMTQSPLSLPVTLGQPASISCKSSQSLLDSDGKTYLNWLQQRPGQSPRRLIYLVSKLDSGVPDRFSGSGSGTDFTLKISRVEAEDVGVYYCWQGTHIPFTFGGGTKVEIK	binds	–	–	binding [1]: binds
engineered antibody LB632/519 (antibody, V domains shown) VH: QVQLVQSGAEVKKPGASVKVSCKASGYAFSYSWMNWVRQAPGQGLEWMGRIYPESGDTNYAGKFKGRVTMTRDTSISTAYMELSRLRSDDTAVYYCARWVYGLPHFDYWGQGTLVTVSS VL: DVVMTQSPLSLPVTLGQPASISCKSSQSLLDSDGKTYLNWLQQRPGQSPRRLIYLVSKLDSGVPDRFSGSGSGTDFTLKISRVEAEDVGVYYCWQGTHLPFTFGGGTKVEIK	–	–	–	binding [5]: binds
engineered antibody LB631/519 (antibody, V domains shown) VH: QVQLVQSGAEVKKPGASVKVSCKASGYAFSYSWMNWVRQAPGQGLEWMGRIYPENGDTNYAGKFKGRVTMTRDTSISTAYMELSRLRSDDTAVYYCARWVYGLPHFDYWGQGTLVTVSS VL: DVVMTQSPLSLPVTLGQPASISCKSSQSLLDSDGKTYLNWLQQRPGQSPRRLIYLVSKLDSGVPDRFSGSGSGTDFTLKISRVEAEDVGVYYCWQGTHLPFTFGGGTKVEIK	–	–	–	binding [5]: binds
phage display clone LB511-F11 (antibody, V domains shown) VH: QVQLVQSGAEVKKPGASVKVSCKASGYAFSYSWMNWVRQAPGQGLEWMGRIYPENGDTNYNGKFKGRVTMTRDTSISTAYMELSRLRSDDTAVYYCARWVYGYPHFDYWGQGTLVTVSS VL: DVVMTQSPLSLPVTLGQPASISCKSSQSLLDSDGKTYLNWLQQRPGQSPRRLIYLVSKLDSGVPDRFSGSGSGTDFTLKISRVEAEDVGVYYCWQGTHRPFTFGGGTKVEIK	binds	–	–	binding [1]: binds
affinity matured antibody LB517/520 (antibody, V domains shown) VH: QVQLVQSGAEVKKPGASVKVSCKASGYAFSYSWMNWVRQAPGQGLEWMGRIYPENGDTNYNGKFKGRVTMTRDTSISTAYMELSRLRSDDTAVYYCARWVYGLPHFDYWGQGTLVTVSS VL: DVVMTQSPLSLPVTLGQPASISCKSSQSLLDSDGKTYLNWLQQRPGQSPRRLIYLVSKLDSGVPDRFSGSGSGTDFTLKISRVEAEDVGVYYCWQGTHRPFTFGGGTKVEIK	–	binds	binds	–
phage display clone LB510-G5 (antibody, V domains shown) VH: QVQLVQSGAEVKKPGASVKVSCKASGYAFSYSWVNWVRQAPGQGLEWMGRIYPENGDTNYNGKFKGRVTMTRDTSISTAYMELSRLRSDDTAVYYCARWVYGYPHFDYWGQGTLVTVSS VL: DVVMTQSPLSLPVTLGQPASISCKSSQSLLDSDGKTYLNWLQQRPGQSPRRLIYLVSKLDSGVPDRFSGSGSGTDFTLKISRVEAEDVGVYYCWQGTHFPFTFGGGTKVEIK	binds	–	–	–
affinity matured antibody LB495/519 (antibody, V domains shown) VH: QVQLVQSGAEVKKPGASVKVSCKASGYAFSYSWMNWVRQAPGQGLEWMGRIYPENGDTNYNGKFKGRVTMTRDTSISTAYMELSRLRSDDTAVYYCARWVYGYPHFDYWGQGTLVTVSS VL: DVVMTQSPLSLPVTLGQPASISCKSSQSLLDSDGKTYLNWLQQRPGQSPRRLIYLVSKLDSGVPDRFSGSGSGTDFTLKISRVEAEDVGVYYCWQGTHLPFTFGGGTKVEIK	–	binds	binds	–
